From PMC3695902
No constants are given. Whether binding was seen depends on the method and setting. Binding seen in cells or lysates may run through a third protein. Some results given as binding are weak or reduced against the parent protein; the word gives no strength.

Amino acid sequences for entries named in this document (tags omitted).
UniProt P41145: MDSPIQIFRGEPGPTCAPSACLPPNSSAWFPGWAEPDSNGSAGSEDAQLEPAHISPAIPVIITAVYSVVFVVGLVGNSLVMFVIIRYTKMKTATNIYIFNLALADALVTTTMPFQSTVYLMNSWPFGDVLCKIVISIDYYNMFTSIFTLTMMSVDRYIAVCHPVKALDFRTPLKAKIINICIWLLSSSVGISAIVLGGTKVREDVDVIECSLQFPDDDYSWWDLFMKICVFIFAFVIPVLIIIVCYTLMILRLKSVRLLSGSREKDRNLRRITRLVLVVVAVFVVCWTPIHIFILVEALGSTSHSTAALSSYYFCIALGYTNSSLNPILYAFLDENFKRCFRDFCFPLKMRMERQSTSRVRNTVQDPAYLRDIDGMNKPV
UniProt P35212: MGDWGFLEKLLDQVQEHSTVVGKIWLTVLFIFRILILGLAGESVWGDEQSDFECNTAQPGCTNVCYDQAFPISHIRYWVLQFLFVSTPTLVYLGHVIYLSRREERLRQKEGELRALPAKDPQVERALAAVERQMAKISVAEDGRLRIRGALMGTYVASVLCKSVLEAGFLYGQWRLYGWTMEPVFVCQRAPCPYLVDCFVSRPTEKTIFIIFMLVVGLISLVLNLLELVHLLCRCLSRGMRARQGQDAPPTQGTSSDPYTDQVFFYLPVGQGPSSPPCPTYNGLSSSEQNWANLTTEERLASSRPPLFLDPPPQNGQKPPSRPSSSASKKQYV

Molecular target: FLAG-tagged kappa opioid receptor stably expressed in HEK293 cells (HEK-KOR) (UniProt P41145)
Assay: co-IP; FLAG-tagged MOR, DOR or KOR immunoprecipitated with rabbit anti-FLAG on Protein-G Dynabeads from 1 mg lysate of stably expressing HEK293 cells transfected with tagged MORIPs; blot anti-myc or anti-HA; mock IP with non-specific rabbit IgG; cells of Figure 7B treated 6 hours with 30 µM MG132

In the case of “myc-tagged full-length Cx37 (from UniProt P35212 1-333)”, the binding is reported as “binds”.
